Measured values published in PubChem BioAssay AID1794845 (National Center for Advancing Translational Sciences (NCATS), 2023).
In all, about 6,900 compounds went through this assay and fewer than 10 were called active. Calls follow the shape of the dose curve; as a rule, active = well fitted curve in the direction sought with a large enough effect; inconclusive = small, poorly fitted or top-dose-only effect, or another doubt; inactive = no such curve, though single readings can be large or run the other way. The list shows a part of the results.

By UniProt entry, the sequences of proteins in these tests, tags left out. Where a name states a change or a piece, a line headed by the entry shows the natural chain unless it says otherwise.
UniProt C7C422: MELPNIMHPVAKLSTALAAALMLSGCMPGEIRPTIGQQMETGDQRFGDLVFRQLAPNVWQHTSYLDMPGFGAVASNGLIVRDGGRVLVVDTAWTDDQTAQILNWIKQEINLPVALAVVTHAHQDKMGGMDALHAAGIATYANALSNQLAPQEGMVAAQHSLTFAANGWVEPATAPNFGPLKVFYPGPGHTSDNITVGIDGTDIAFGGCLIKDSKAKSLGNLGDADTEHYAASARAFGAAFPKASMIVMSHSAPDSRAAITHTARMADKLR

biological target: Metallo-beta-lactamase type 2 (Klebsiella pneumoniae) (UniProt C7C422); test: qHTS to identify inhibitors of the New Delhi Metallo-beta-lactamase (NDM): primary screen against the NCATS Gemini Collection; settings: NDM-1 enzyme, meropenem hydrolysis, absorbance 300 nm; at 38.4 µM (top of the series) unless noted; also: % of control where 0% means no effect
How it was run: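 Meropenem hydrolysis (50 uM final) by 2 nM NDM-1 read as 300 nm absorbance after 30 min, following >30 min compound–enzyme preincubation in HEPES pH 7.0 with 1 uM ZnSO4 and 0.01% Tween20.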

Activity % (negative = inhibition), inactive:
Cn1cccc1C(=O)N1CC[C@H](NC(=O)Nc2ccc(F)cc2F)[C@H]1C(=O)N[C@H](Cc1ccccc1)C(N)=O -0.0836%
O=C(O)CCc1cc2n(n1)CCCN(C(=O)c1cc3c([nH]c1=O)CCC3)C2 6.54%
COCCNC(=O)c1ccc2c(c1)N(C)C(CC(=O)NCC(C)C)CO2 (centres undefined) 7.94%
CCc1ccccc1NC(=O)c1cc2c(N3CCSCC3)nc(C)cn2n1 3.67%
O=C1OC2(CCN(C(=O)c3ccco3)CC2)CN1CCOc1ccccc1 21.6%
O=C(Nc1ccccc1C(F)(F)F)N1CCCC(Cn2cnc3cccnc32)C1 (centres undefined) -0.209%
Cc1cc(C(=O)N2CCC(F)(c3nc(-c4ccncc4)no3)CC2)n[nH]1 -1.79%
Cc1cc(C)n(CC(=O)N2CCCCCCNC(=O)[C@@H]3CCCC[C@@H]32)n1 11.4%
CNC(=O)[C@@H]1C[C@H](Oc2ccccc2)CN1S(=O)(=O)c1cccs1 2.65%
O=C([C@H]1C[C@H](Oc2cccnc2)CN1C(=O)c1ccc2ccccc2n1)N1CCOCC1 27%
COC[C@@H]1CN(C(=O)CCc2c(C)nn(C)c2C)C[C@H]1c1ccccn1 -0.973%
O=C(Nc1ccc(Oc2ccccc2)cc1)O[C@@H]1CO[C@H]2[C@@H]1OC[C@@H]2n1nnnc1-c1ccc(-c2ccccc2)cc1 -0.658%
CN(Cc1ccccc1)Cc1nc(C2CCOC2)no1 (centres undefined) -0.199%
COc1ccccc1-c1ccc(CN2CCCC(c3nc4ccc(C)cc4c(=O)[nH]3)C2)cc1 (centres undefined) 2.11%
COc1cccc(N2C(=O)NC(=NC3CCCC3)C23CCCN(Cc2cccn2C)C3)c1 (centres undefined) 10.5%
COCCN1Cc2sccc2N(CC(O)COc2ccc(OC)cc2)CCC1=O (centres undefined) 3.92%
O=C(NCc1ccc(F)cc1)N1CCCC(Cc2noc(-c3cccnc3)n2)C1 (centres undefined) 11.3%
CC(=O)N1CC2(CCN(C(=O)NCc3ccccc3)CC2)CC1C(=O)O (centres undefined) 6.85%
C[C@@H](NCC1CCCC1)c1onc(-c2ccc(Cl)cc2)c1C(=O)O 1.79% [at 57.5 µM]
O=C(c1ccncc1)N1CCC(Cc2noc(-c3ccccc3)n2)C1 (centres undefined) 4.42%
CC(C)S(=O)(=O)N1CCC2(CC1)CC1C(=O)NCCN1C2 (centres undefined) 24.6%
O=C(N[C@@H]1COCC[C@@H]1OCC1CC1)c1ccc2c(c1)CCCO2 -1.94%
Cc1cc(OC2CN(Cc3ccnn3C)C2)ccc1F 5.53% [at 57.5 µM]
COc1ccc(CCNC(=O)c2c(-c3ccccc3)cc(=O)n3c2CCC3)cc1OC 3.56%
COCC(=O)N1CCCCC1c1nc(-c2ccccc2)n[nH]1 (centres undefined) -0.423%
CSCCC(=O)N1CCc2c(ncnc2N2CCOCC2)C1 0.138%
CNC(=O)c1cc(C2CC2)nc2c1c(C1CCN([S+](=O)([O-])c3c(C)noc3C)CC1)nn2C 38.3%
COc1ccc([C@H]2C[C@@H](O)[C@@H](O)[C@@H]2NC(=O)C(C)C)cc1 -7.3% [at 57.5 µM]
Cc1ccc(-n2cc(CN3CCN4CCCC4C3)c(-c3cccc(C)c3)n2)cc1 (centres undefined) -0.0696%
COc1ccc(CCNc2ncnc3c2CN(c2ccc(C)cc2)C(=O)CN3C)cc1 29.7%
CC(C)CNC(=O)CN1CCOc2c(O)cc(-c3cccc(Cl)c3)cc2C1 3.1%
CCN1CC(C(=O)N(C)Cc2ccc(Oc3ccccc3)cc2)CCC1=O (centres undefined) 17.5%
O=C(c1cccnc1)N1CCn2cc(C(=O)N3CCOCC3)nc2C1 3.91%
O[C@]1(c2ccccc2)CCN(Cc2ccncc2)C[C@H]1N1CCCC1 79.8%
CSc1ccc(-c2ccc3c(c2)C(=O)N2CCN(C(=O)CCC(=O)O)C[C@@H]2C(=O)N3)cc1 21.6%
CC(C)CS(=O)(=O)N[C@H](C)c1onc(-c2ccc(F)cc2)c1C(=O)O -1.69% [at 57.5 µM]
COc1cccc(S(=O)(=O)N2C[C@@H](Oc3cccnc3)C[C@H]2C(=O)NC2CC2)c1 2.2%
Cc1cnn(CCC(=O)N2CCCC(c3nnc(Cn4ccnc4)n3C)C2)c1 (centres undefined) -5.82%
COc1ccc(CN2C(=O)CO[C@H]3CN(C(=O)C4CC4)C[C@H]32)cc1 7.15% [at 57.5 µM]
C=CCNC(=O)N1CC[C@H]2CC(=O)N(C3CC3)CC[C@H]2C1 5.67% [at 77.1 µM]
C=CCNC(=O)N[C@H]1CCN(C(=O)CSC)[C@@H]1C(=O)N1CCC[C@@H]1C(N)=O 2.76% [at 57.5 µM]
O=C(C1CCC1)N1CCOc2ccc(CN3CCc4ccccc4C3)cc2C1 12.7%
CCNC(=O)[C@@H]1C[C@H](N)CN1C(=O)c1cnc(-c2cccnc2)nc1C -0.639%
Fc1ccc(OC2CN(CC3CCCCC3)C2)c(F)c1 -16.1% [at 57.5 µM]
CN(C)C[C@@H]1CN(c2ncccn2)C[C@H]1NS(=O)(=O)Cc1ccc(F)cc1 34.2%
Cc1c(F)cccc1NC(=O)N1C[C@@H](F)C[C@H]1C(=O)N1CCOCC1 -3.22%
Cc1nc2cnccn2c1C(=O)NCc1ccccc1 1.43% [at 57.5 µM]
COc1cccc(CN2CCCC3(CNc4ccccc4[S+](=O)([O-])N3)C2)c1 (centres undefined) 3.03%
OCC1(CCCc2ccccc2)CCCNC1 (centres undefined) 1.05%
CCn1c2c(c(=O)n1Cc1ccccc1)CCN(C(=O)c1scnc1C)C2 -7.51% [at 57.5 µM]
CN(CC1CCOCC1)S(=O)(=O)c1ccc(Cl)s1 -0.576%
Cc1ccc2c(C(=O)NCc3ccc(C(F)(F)F)cc3)cc(NC(=O)C(C)C)cc2n1 8.15%
COC(=O)C1=CN(CC(=O)NCCCc2ccccc2)S(=O)(=O)N=C1C -0.481%
Cn1cc(CNC(=O)c2ccc(S(=O)(=O)N[C@@H]3CCNC3)cc2)cn1 -0.515%
CS(=O)(=O)N1CCC(C2CCN(Cc3ccc4c(c3)CCO4)C2)CC1 (centres undefined) -3.05%
CC1=C(C(=O)Nc2ccccc2)C(c2cc(C)ccc2C)N2C(CC(=O)N3CCCC3)=CSC2=N1 (centres undefined) 5.08%
CCOC(=O)C1CCCN(C(=O)C2CCc3nnc(C4CCN(C(C)=O)CC4)n32)C1 (centres undefined) -3.56% [at 57.5 µM]
O=c1cc(-c2ccncc2)oc2c(-c3cccc(CO)c3)nccc12 12.1% [at 57.5 µM]
CCN1CCN(C(=O)C2CCc3ncc(-c4ccsc4)n3C2)CC1 (centres undefined) 0.375%
O=C(NCC1CCCCC1)c1cc(-c2cc(Cl)cc(Cl)c2)c2nncn2n1 9.48%
COC(=O)[C@H](NC(=O)[C@@H]1C[C@H](NC(=O)Nc2ccc(OC)cc2)CN1C(=O)c1cccn1C)C(C)C 20.5%
O=C(NC1CC1)c1nc(-c2ccc(F)cc2)c2cnccn12 0.827%
CC(C)OC(=O)N1CCC(COc2cnc3c(ccn3CC(N)=O)c2)CC1 7.35% [at 57.5 µM]
COCCN(Cc1ccccc1F)Cc1cc2c(cc1OC)OCO2 -0.046%
Cc1cnc(CC2CCCN(Cc3ccc(F)cc3F)C2)n1Cc1ccccc1 (centres undefined) 5.38%
CC1CCN(c2ncncc2-c2nc(-c3ccccc3)no2)CC1 -13.3%
CC(=O)N1CCC(N2CCC[C@H]2c2nc(-c3ccc(-c4ccncc4)nc3)no2)CC1 22.7% [at 57.5 µM]
CN(CCc1ccccn1)C(=O)[C@@]12CCCC[C@H]1N(C)C(=O)CC2 15.5%
COC[C@H]1C[C@@H](NC2CCN(C(C)=O)CC2)[C@H](O)[C@@H]1O 0.078% [at 77.1 µM]
Cc1cnc(C2CCC2)n1CC1CCN(C(=O)COCc2ccccc2)C1 (centres undefined) -5.28%
CC(=O)Nc1cccc(CN2CCC(N3CCCNC3=O)CC2)c1 -0.602% [at 57.5 µM]
COc1ccc(CC(=O)N(C)C2CCc3nnc(C)n3CC2)cc1Cl (centres undefined) -0.188%
COCCn1cnnc1CCNC(=O)c1oc2cc(OC)ccc2c1C 15.6%
COCCNc1ncc(-c2ccc(F)cc2)c2c1OCC2 14.1% [at 77.1 µM]
COc1ccc(CCC(=O)N2CCC3(CC2)CC(C(=O)N2CCOCC2)N(C)C3)cc1 (centres undefined) 7.21%
Cn1cccc1CN1CCC2(C1)C(=NC1CCCC1)NC(=O)N2c1cccnc1 (centres undefined) 4.75%
NCCCC(=O)N1CCCC2(Cc3ccccc3CN2C(=O)c2cccc(Cl)c2)C1 (centres undefined) 9.24%
CCN1C(=O)C2CC3(CCN(Cc4cnn(CC)c4C)CC3)CN2C1=O (centres undefined) 6.1%
Cc1cn2nc(C(=O)NCc3cccnc3)cc2c(=O)[nH]1 12.3%
COc1nccnc1-c1cc(NCCN(C)C)nc2[nH]ccc12 3.36%
COc1cc(=O)n2c(c1C(=O)N1CCN(c3ccc(C)cc3C)CC1)CCCC2 2.82%
O=C(C1CCCC1)N1CCCC(c2nn[nH]n2)C1 (centres undefined) 10.3%
O=C(NCc1cc2n(n1)CCCN(C1CCCCC1)C2)c1cccc(F)c1 -4.41%
CCNC(=O)[C@@H]1C[C@H](N)CN1C(=O)C(C)(C)Oc1ccc(C)cc1 9.75%

Structures above with a CF3 group:
Activity % (negative = inhibition), inactive:
O=C(Nc1ccccc1C(F)(F)F)N1CCCC(Cn2cnc3cccnc32)C1 (centres undefined) -0.209%
Cc1ccc2c(C(=O)NCc3ccc(C(F)(F)F)cc3)cc(NC(=O)C(C)C)cc2n1 8.15%
